Laboratory results taken from US5830672A, “Elisa kit for the rapid determination of N-acetyltransferase (NAT2) phenotypes” (priority 1996, dated 1998).

Legend:
Type in all cases: binding, rabbit
AAMU-Ab = assay: Competitive antigen ELISA, cross-reactivity of AAMU-Ab
Protocol: (§1) Four mature females New Zealand white rabbits (Charles River Canada, St-Constant, Que., Canada) were used for antibody production. The protocol employed in this study was approved by the McGill University Animal Care Committee in accordance with the guidelines from the Canadian Council on Animal Care. An isotonic saline solution (0.6 mL) containing […] of BSA conjugated antigen was emulsified with 0.6 mL of a complete Freund's adjuvant. 0.5 mL of the emulsion (100 mg of antigen) was injected per rabbit intramuscularly or subcutaneously. Rabbits were subsequently boosted at intervals of three weeks with 50 mg of antigen emulsified in incomplete Freund's adjuvant. Blood was collected by venipuncture of the ear 10-14 days after boosting. Antisera were stores at 4° C. in the presence of 0.01% sodium azide. Buffers and water without additives were filtered through millipore filters and kept for 1 week. BSA, antibodies, Tween™ 20 and horse radish peroxidase conjugates were added to these buffers and water just prior to use. Urine samples were usually collected 4 hours after drinking a cup of coffee (instant or brewed with approximately 100 mg of caffeine per cup) and stored at -80° C. They were diluted 10 times with sodium phosphate buffer (620 mosm, pH 7.50) and were subsequently diluted with water to give concentrations of AAMU and 1X no higher than 3×10^-6 M in the ELISA. […]

1X-Ab [1] = assay: Effect of the ratio 1U:1X on the determination of 1X concentration by ELISA; conditions: for apparent [1X]: fixed 1X concentration 3 × 10^-6 M; for apparent increase of 1X concentration: fixed 1X concentration 3×10^-6 M
1X-Ab [2] = assay: Competitive antigen ELISA, cross-reactivity of 1X-Ab
Protocol: as §1

SMILES	practical limit of detection (AAMU-Ab) [nM]	apparent [1X] (1X-Ab [1]; 1U:1X ratio 0.0)	apparent [1X] (1X-Ab [1]; 1U:1X ratio 0.50)	apparent [1X] (1X-Ab [1]; 1U:1X ratio 1.00)	apparent [1X] (1X-Ab [1]; 1U:1X ratio 1.50)	apparent [1X] (1X-Ab [1]; 1U:1X ratio 2.00)	apparent [1X] (1X-Ab [1]; 1U:1X ratio 2.50)	apparent increase of 1X concentration (1X-Ab [1]; 1U:1X ratio 2.5) [%]	apparent [1X] (1X-Ab [1]; 1U:1X ratio 3.00)	apparent increase of 1X concentration (1X-Ab [1]; 1U:1X ratio 3.0) [%]	apparent [1X] (1X-Ab [1]; 1U:1X ratio 4.00)	apparent [1X] (1X-Ab [1]; 1U:1X ratio 5.00)	apparent [1X] (1X-Ab [1]; 1U:1X ratio 6.00)	apparent [1X] (1X-Ab [1]; 1U:1X ratio 8.00)	practical limit of detection (1X-Ab [2]) [µM]
CC(=O)Nc1c(N)[nH]c(=O)n(C)c1=O	200	–	–	–	–	–	–	–	–	–	–	–	–	–	–
Cn1c(=O)[nH]c2nc[nH]c2c1=O [1-Methyl Xanthine (1X), 1-Methyl Xanthine]	–	3.00 × 10^6 (M)	2.75 × 10^6 (M)	3.25 × 10^6 (M)	3.25 × 10^6 (M)	3.60 × 10^6 (M)	3.65 × 10^6 (M)	22	3.95 × 10^6 (M)	32	4.20 × 10^6 (M)	4.30 × 10^6 (M)	4.50 × 10^6 (M)	4.30 × 10^6 (M)	2
